Source: the supplement of paper PMC10849652
This is one part of the list.

The chains behind the UniProt entries cited, without tags or fusion partners. Where a name states a change or a piece, a line headed by the entry shows the natural chain unless it says otherwise.
UniProt Q9BTC0, whole entry, looked up: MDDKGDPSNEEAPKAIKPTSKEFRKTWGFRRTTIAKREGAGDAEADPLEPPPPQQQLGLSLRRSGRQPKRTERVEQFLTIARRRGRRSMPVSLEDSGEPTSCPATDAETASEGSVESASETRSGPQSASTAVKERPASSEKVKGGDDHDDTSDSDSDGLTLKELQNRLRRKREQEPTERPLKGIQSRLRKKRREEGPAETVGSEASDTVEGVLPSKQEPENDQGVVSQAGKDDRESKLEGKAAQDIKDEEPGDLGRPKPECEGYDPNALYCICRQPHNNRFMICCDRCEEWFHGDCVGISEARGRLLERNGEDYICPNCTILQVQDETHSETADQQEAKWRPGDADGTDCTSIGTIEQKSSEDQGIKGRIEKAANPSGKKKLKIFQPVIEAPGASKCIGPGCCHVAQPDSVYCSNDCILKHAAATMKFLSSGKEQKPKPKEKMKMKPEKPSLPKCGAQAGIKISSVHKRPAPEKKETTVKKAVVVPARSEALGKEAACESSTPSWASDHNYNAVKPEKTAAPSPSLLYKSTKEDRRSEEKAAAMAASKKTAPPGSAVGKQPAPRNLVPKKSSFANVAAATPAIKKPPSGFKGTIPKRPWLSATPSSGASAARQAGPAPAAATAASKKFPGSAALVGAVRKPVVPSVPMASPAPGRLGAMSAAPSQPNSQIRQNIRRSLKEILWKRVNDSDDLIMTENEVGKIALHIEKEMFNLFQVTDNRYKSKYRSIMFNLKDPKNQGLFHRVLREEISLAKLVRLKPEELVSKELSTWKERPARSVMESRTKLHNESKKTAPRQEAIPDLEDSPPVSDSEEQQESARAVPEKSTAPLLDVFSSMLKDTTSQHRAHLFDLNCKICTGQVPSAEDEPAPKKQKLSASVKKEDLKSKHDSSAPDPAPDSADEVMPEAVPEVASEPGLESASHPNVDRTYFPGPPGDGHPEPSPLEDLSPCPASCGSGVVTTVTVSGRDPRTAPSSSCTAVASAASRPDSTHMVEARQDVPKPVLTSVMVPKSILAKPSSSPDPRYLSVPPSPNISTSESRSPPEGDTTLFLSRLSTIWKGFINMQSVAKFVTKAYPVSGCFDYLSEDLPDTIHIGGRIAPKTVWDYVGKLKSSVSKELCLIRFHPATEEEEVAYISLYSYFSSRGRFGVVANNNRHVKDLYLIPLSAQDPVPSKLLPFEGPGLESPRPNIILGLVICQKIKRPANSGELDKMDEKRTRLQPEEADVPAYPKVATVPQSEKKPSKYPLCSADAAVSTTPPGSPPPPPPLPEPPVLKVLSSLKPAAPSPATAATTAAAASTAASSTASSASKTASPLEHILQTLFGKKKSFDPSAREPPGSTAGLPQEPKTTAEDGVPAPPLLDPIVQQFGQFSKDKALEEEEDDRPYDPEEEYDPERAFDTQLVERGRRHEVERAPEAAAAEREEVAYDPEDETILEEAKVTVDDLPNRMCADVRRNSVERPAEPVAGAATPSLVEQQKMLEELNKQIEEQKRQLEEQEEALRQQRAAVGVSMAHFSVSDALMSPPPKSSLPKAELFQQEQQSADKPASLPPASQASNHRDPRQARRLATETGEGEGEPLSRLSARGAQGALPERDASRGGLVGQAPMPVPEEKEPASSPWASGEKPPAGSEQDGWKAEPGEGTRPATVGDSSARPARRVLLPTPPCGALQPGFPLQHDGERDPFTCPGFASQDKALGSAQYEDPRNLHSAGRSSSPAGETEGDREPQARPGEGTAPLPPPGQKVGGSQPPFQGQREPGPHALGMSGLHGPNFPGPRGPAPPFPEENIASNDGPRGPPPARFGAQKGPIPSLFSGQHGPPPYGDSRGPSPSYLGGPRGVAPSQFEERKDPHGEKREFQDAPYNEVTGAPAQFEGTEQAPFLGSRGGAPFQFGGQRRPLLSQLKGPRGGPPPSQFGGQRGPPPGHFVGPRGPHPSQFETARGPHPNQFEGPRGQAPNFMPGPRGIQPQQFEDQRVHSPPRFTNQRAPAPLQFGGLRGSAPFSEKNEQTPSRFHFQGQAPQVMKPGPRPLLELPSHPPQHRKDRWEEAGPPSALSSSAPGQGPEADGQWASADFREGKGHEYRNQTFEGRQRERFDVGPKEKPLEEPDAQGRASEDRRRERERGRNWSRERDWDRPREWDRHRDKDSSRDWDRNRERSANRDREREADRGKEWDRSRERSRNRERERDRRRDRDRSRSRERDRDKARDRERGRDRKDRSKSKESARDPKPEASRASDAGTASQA
UniProt Q9GZR7: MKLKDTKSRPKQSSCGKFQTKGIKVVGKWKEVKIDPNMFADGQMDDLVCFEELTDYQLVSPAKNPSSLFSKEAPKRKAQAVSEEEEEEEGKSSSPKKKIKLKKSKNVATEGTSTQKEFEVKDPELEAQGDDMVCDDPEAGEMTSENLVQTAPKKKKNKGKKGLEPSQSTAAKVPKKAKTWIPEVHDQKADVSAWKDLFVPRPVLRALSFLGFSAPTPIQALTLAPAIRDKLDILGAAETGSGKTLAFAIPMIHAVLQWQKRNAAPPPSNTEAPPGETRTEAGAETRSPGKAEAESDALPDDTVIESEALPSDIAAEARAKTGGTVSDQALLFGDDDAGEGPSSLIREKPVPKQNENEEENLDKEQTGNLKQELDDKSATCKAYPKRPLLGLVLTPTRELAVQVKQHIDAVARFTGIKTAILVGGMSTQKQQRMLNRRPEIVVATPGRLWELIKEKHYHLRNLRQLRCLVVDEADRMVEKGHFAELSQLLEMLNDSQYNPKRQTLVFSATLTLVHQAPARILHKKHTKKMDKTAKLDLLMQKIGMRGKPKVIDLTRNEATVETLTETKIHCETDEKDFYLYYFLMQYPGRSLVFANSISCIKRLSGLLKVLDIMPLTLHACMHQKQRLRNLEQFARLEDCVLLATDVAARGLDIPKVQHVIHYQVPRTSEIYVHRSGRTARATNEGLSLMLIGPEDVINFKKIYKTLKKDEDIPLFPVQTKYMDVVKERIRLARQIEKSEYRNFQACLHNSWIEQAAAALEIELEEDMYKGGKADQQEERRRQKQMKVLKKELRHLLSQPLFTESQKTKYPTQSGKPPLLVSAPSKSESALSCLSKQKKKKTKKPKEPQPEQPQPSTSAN
UniProt Q7L7V1: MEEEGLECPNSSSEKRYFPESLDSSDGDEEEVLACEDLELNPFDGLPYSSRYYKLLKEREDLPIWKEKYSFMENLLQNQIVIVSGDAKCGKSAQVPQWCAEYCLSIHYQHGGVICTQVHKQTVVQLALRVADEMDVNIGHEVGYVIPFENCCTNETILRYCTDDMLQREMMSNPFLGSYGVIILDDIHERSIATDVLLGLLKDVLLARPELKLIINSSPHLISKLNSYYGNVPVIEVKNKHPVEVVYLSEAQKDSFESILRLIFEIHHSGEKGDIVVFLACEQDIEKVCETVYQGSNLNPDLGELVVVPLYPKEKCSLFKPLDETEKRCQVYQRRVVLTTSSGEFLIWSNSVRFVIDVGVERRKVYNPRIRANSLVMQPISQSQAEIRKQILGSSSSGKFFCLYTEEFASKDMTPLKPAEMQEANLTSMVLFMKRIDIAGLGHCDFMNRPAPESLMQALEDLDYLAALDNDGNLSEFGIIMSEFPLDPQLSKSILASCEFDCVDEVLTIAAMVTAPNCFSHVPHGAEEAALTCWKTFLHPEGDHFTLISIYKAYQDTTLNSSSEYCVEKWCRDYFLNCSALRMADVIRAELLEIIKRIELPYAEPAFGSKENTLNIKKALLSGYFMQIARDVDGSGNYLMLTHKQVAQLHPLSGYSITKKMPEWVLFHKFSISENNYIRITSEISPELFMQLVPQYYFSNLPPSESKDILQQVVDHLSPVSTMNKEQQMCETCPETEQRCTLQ
UniProt Q86XP3: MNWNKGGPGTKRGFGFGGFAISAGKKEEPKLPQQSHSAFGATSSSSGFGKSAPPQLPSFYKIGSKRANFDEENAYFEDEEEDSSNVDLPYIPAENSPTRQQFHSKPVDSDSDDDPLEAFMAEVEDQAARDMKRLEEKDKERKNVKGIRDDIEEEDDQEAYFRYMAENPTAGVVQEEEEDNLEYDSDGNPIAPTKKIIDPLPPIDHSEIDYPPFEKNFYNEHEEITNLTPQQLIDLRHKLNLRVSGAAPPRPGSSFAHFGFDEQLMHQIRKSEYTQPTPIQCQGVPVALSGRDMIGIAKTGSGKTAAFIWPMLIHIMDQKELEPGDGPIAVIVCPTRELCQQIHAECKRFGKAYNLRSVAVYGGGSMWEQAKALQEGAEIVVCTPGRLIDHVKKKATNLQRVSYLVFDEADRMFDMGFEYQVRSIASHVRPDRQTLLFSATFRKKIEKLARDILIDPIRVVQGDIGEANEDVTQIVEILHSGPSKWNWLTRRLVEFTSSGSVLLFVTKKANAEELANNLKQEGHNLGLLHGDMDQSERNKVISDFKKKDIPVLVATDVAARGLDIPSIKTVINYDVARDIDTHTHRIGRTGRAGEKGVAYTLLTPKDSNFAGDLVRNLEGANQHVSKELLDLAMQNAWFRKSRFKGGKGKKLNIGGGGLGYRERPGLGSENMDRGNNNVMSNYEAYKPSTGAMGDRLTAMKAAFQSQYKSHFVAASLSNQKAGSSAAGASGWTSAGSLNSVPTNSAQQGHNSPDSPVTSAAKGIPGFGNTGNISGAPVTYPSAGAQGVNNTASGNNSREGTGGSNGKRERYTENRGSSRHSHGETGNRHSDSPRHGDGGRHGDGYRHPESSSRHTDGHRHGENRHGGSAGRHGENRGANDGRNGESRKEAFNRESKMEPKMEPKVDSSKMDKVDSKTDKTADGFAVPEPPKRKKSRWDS
UniProt O95057: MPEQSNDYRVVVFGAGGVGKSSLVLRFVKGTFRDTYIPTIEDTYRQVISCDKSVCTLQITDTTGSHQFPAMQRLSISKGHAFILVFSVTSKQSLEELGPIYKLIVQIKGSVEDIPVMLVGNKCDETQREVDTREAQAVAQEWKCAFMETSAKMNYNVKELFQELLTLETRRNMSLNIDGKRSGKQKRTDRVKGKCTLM
UniProt P80370: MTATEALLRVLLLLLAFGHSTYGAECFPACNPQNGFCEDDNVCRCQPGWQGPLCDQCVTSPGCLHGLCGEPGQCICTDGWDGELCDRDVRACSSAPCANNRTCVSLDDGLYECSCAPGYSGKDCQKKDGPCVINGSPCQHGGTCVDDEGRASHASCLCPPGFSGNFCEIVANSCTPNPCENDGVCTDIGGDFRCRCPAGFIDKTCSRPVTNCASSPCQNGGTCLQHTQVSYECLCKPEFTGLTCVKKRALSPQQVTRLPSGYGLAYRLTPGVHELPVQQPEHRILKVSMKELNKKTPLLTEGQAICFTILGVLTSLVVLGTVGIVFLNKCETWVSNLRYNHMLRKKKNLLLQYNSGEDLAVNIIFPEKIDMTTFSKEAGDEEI
UniProt A8MPP1: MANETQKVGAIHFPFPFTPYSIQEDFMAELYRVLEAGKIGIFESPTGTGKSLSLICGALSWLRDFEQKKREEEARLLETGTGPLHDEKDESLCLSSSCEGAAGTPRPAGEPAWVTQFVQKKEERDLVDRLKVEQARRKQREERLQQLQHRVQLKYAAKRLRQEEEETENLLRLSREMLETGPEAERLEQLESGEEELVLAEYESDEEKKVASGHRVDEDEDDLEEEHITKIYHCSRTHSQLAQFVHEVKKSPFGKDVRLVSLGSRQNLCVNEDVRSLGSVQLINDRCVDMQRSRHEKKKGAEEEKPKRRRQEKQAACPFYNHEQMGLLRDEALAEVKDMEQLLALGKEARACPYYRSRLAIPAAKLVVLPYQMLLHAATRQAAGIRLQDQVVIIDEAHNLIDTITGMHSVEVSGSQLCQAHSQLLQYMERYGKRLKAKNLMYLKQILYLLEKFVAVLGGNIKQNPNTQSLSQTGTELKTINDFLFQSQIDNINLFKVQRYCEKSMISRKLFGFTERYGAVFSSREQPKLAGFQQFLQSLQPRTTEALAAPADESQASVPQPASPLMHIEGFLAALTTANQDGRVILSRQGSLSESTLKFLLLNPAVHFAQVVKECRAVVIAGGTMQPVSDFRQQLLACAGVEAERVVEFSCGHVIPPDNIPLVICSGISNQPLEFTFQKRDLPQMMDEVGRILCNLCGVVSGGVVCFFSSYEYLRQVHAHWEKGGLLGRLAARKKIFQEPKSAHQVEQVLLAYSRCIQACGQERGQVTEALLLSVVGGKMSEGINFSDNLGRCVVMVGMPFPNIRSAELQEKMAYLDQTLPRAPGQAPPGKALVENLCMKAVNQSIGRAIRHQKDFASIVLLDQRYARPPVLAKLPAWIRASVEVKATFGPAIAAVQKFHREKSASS
UniProt Q8N5I4: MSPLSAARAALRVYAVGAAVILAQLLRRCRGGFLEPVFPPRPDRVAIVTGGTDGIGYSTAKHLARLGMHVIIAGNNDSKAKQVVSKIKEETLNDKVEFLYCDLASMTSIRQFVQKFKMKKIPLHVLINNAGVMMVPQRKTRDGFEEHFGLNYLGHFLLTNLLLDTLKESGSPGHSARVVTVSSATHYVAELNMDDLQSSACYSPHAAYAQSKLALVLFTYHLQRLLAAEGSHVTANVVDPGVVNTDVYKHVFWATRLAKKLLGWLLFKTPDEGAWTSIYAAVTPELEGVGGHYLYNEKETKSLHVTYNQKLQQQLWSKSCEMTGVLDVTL

Compound: Cc1sc2c(c1C)C(c1ccc(Cl)cc1)=N[C@@H](CC(=O)OC(C)(C)C)c1nnc(C)n1-2
Assay: log2 fold change, soluble protein after heating vs DMSO (PISA); higher = thermal stabilisation; K562 cells, 10 uM, 30 min; active = over 0.2 and 3.5 SD of the protein, either way, in both replicates (recomputed)
How it was run: (§1)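 K562 cells at 2×10^6 cells/mL were treated for 30 min with 10 μM compound, and aliquots were heated for 3 min over 48°C-58°C before pooling. Extraction used PBS with 0.5% NP-40 at 4°C, and soluble protein was the supernatant after 21,000xg for 90 min, measured by TMTpro 16plex LC-MS/MS with channel sums equalised. Thermal stability values, relative to control samples and from duplicates, are log2 fold changes.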

| Target | log2 fold change |
| --- | --- |
| DIDO1 (UniProt Q9BTC0) | inactive: -0.024 |
| DENND1A isoform 6 (UniProt Q8TEH3) | inactive: 0.284 |
| DDX24 (UniProt Q9GZR7) | inactive: 0.196 |
| DDX55 (UniProt Q8NHQ9) | inactive: -0.009 |
| DGKE (UniProt P52429) | inactive: -0.023 |
| DESI2 (UniProt Q9BSY9) | inactive: 0.014 |
| DMTN isoform 2 (UniProt Q08495) | inactive: 0.091 |
| DIS3L (UniProt Q8TF46) | inactive: 0.097 |
| DEF6 (UniProt Q9H4E7) | inactive: 0.026 |
| DECR2 (UniProt Q9NUI1) | inactive: 0.035 |
| DDX20 (UniProt Q9UHI6) | inactive: 0.111 |
| DHRS13 (UniProt Q6UX07) | inactive: 0.218 |
| DHTKD1 (UniProt Q96HY7) | inactive: -0.132 |
| DHX32 (UniProt Q7L7V1) | inactive: 0.035 |
| DMTF1 (UniProt Q9Y222) | inactive: -0.095 |
| DDX42 (UniProt Q86XP3) | inactive: -0.124 |
| DDX11 (UniProt Q96FC9) | inactive: 0.059 |
| DDX27 (UniProt Q96GQ7) | inactive: 0.12 |
| DIRAS1 (UniProt O95057) | inactive: 0.05 |
| DDX18 (UniProt Q9NVP1) | inactive: 0.173 |
| DMKN (UniProt Q6E0U4) | inactive: -0.518 |
| DHX34 (UniProt Q14147) | inactive: -0.091 |

Compound: c1ccc([C@@H]2C[C@H]2NC2CCNCC2)cc1
Assay: as above
How it was run: as §1

| Target | log2 fold change |
| --- | --- |
| DIDO1 (UniProt Q9BTC0) | inactive: 0.038 |
| DENND1B (UniProt Q6P3S1) | inactive: -0.045 |
| DDX28 (UniProt Q9NUL7) | inactive: 0.041 |
| DDX24 (UniProt Q9GZR7) | inactive: -0.076 |
| DGKE (UniProt P52429) | inactive: -0.093 |
| DIS3L (UniProt Q8TF46) | inactive: 0.107 |
| DEF6 (UniProt Q9H4E7) | inactive: 0.14 |
| DLK1 (UniProt P80370) | inactive: 0.051 |
| DET1 isoform 2 (UniProt Q7L5Y6) | inactive: 0.084 |
| DDX20 (UniProt Q9UHI6) | inactive: -0.168 |
| DHRS13 (UniProt Q6UX07) | inactive: -0.14 |
| DDX11L8 (UniProt A8MPP1) | inactive: -0.379 |
| DIEXF (UniProt Q68CQ4) | inactive: -0.139 |
| DMTF1 (UniProt Q9Y222) | inactive: 0.034 |
| DDX42 (UniProt Q86XP3) | inactive: -0.047 |
| DDX27 (UniProt Q96GQ7) | inactive: -0.046 |
| DDX52 (UniProt Q9Y2R4) | inactive: -0.017 |
| DDX47 (UniProt Q9H0S4) | inactive: 0.093 |
| DDX18 (UniProt Q9NVP1) | inactive: 0.046 |
| DHRSX (UniProt Q8N5I4) | inactive: 0.123 |
| DDR1 isoform 5 (UniProt Q08345) | inactive: 0.073 |
